Earlier results as cited in patent publication US12616692B2, “Method of achieving HIV viral remission using long-acting antiretroviral agents” (ViiV Healthcare Company, priority 2020, dated 2026).
For at least one compound, name, drawing or mass did not settle the structure.

System: HIV
Conditions: cited from earlier work

## Cc1cc(/C=C/C#N)cc(C)c1Nc1ccnc(Nc2ccc(C#N)cc2)n1 [RPV, rilpivirine]
  Protein-adjusted concentration required for 90% viral inhibition: 12 ng/mL
